Laboratory results taken from article PMC11628624.
These are yes or no findings as the source states them, for the method shown. Binding seen in cells or lysates may run through a third protein. Some binding calls cover weakened binding; strength is not graded here. Blank lines part the entries; values can stand above or below the substance they belong to.

Protein sequences, listed by entry. Tags and fused reporters are not part of them.
UniProt Q06330: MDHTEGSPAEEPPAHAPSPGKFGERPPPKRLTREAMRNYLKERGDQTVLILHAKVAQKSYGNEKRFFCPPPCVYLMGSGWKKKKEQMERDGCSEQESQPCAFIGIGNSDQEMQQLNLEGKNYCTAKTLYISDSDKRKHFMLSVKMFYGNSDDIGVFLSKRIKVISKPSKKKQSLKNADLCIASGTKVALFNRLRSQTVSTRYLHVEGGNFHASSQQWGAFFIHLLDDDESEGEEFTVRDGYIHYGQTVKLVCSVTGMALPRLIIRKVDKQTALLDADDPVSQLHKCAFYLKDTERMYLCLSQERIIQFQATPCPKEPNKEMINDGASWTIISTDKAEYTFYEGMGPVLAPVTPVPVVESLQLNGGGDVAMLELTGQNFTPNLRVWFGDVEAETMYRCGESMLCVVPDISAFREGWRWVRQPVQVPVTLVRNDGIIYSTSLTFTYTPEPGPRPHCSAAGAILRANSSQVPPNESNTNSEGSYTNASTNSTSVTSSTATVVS
UniProt P48431: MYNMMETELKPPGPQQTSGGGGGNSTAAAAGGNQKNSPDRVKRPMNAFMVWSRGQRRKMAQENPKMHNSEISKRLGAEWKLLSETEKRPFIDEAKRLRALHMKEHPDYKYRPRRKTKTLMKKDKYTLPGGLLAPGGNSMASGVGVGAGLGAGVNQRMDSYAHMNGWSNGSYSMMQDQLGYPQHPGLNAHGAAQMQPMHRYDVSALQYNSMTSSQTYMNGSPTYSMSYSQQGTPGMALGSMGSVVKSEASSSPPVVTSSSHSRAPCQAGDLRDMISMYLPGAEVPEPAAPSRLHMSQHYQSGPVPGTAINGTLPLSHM

Experiments:
[1] = target: RBPJ (endogenous) (human (endogenous in MB157 and MB157R)) (UniProt Q06330); test: co-IP; iSOX2 MB157 cells (DOX-induced HA-tagged SOX2); lysis buffer 20 mM Tris pH 8.0, 150 mM NaCl, 1% NP-40, 10% glycerol; 2 mg protein, overnight at 4 °C with anti-HA or anti-RBPJ antibody and Protein A Sepharose; 5 washes; immunoblot
[2] = target: SOX2 (endogenous, MB157R cells) (human (endogenous in MB157R)) (UniProt P48431); test: co-IP; MB157R cells, endogenous proteins; lysis buffer 20 mM Tris pH 8.0, 150 mM NaCl, 1% NP-40, 10% glycerol; 2 mg protein, overnight at 4 °C with anti-SOX2 or anti-RBPJ antibody and Protein A Sepharose; 5 washes; immunoblot
[3] = target: HA-tagged SOX2 (DOX-inducible, iSOX2) (UniProt P48431); test: co-IP; iSOX2 MB157 cells (DOX-induced HA-tagged SOX2); lysis buffer 20 mM Tris pH 8.0, 150 mM NaCl, 1% NP-40, 10% glycerol; 2 mg protein, overnight at 4 °C with anti-HA or anti-RBPJ antibody and Protein A Sepharose; 5 washes; immunoblot
[4] = target: RBPJ (endogenous) (human (endogenous in MB157 and MB157R)) (UniProt Q06330); test: co-IP; MB157R cells, endogenous proteins; lysis buffer 20 mM Tris pH 8.0, 150 mM NaCl, 1% NP-40, 10% glycerol; 2 mg protein, overnight at 4 °C with anti-SOX2 or anti-RBPJ antibody and Protein A Sepharose; 5 washes; immunoblot

- binding [1]: binds
Substance: HA-tagged SOX2 (DOX-inducible, iSOX2) (from UniProt P48431 1-317)

- binding [2]: binds
- binding [3]: binds
Substance: RBPJ (endogenous) (from UniProt Q06330 1-500)

- binding [4]: binds
Substance: SOX2 (endogenous, MB157R cells) (from UniProt P48431 1-317)
